Measured values taken from the supplement of paper PMC10849652.
Some of the results follow.

By UniProt entry, the sequences of proteins in these tests, tags left out. Where a name states a change or a piece, a line headed by the entry shows the natural chain unless it says otherwise.
UniProt P45877: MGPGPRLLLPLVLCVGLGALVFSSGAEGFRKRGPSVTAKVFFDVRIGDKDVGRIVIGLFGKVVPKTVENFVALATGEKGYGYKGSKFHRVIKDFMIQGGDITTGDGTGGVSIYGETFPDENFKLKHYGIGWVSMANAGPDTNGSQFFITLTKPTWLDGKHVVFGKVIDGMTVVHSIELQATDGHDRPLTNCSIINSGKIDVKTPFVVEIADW
UniProt Q8IY26: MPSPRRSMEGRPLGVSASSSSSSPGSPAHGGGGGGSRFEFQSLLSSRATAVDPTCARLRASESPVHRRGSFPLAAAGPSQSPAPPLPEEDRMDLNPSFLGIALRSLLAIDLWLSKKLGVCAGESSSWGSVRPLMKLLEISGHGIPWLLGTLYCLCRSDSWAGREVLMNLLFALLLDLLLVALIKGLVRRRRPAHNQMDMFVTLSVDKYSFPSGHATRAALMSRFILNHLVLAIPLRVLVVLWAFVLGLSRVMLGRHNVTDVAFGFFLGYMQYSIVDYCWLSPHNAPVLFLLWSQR
UniProt Q8TC44: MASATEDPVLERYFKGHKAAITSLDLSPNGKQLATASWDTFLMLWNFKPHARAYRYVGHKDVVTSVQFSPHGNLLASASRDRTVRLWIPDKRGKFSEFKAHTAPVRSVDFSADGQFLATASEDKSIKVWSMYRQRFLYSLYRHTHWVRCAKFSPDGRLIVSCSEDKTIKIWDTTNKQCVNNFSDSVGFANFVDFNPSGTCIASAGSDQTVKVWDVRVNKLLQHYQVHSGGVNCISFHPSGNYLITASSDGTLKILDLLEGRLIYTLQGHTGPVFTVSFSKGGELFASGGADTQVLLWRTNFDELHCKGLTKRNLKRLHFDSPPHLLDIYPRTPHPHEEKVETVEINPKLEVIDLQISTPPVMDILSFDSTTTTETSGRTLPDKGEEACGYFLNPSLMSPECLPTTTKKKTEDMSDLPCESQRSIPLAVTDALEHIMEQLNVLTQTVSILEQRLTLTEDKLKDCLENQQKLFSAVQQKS
UniProt Q9H5K3: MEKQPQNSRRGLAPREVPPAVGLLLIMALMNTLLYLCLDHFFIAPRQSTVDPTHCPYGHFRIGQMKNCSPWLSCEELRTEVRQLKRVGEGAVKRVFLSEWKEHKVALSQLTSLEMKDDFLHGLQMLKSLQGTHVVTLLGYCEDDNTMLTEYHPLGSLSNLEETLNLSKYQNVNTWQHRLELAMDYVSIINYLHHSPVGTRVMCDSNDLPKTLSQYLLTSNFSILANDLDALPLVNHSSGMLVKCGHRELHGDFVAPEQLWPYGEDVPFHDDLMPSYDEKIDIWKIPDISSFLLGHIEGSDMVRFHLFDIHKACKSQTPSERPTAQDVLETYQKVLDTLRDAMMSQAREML
UniProt Q8NBT0: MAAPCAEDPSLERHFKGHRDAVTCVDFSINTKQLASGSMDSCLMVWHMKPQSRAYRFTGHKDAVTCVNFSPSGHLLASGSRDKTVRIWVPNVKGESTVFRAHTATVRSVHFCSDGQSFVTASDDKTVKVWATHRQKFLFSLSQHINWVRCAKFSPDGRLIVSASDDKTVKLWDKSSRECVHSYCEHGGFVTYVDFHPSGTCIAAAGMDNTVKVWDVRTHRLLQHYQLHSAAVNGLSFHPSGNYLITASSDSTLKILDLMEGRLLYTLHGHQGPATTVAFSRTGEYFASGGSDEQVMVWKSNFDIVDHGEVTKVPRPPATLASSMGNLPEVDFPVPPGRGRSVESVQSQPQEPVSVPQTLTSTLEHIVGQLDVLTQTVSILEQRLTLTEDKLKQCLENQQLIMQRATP
UniProt Q15063: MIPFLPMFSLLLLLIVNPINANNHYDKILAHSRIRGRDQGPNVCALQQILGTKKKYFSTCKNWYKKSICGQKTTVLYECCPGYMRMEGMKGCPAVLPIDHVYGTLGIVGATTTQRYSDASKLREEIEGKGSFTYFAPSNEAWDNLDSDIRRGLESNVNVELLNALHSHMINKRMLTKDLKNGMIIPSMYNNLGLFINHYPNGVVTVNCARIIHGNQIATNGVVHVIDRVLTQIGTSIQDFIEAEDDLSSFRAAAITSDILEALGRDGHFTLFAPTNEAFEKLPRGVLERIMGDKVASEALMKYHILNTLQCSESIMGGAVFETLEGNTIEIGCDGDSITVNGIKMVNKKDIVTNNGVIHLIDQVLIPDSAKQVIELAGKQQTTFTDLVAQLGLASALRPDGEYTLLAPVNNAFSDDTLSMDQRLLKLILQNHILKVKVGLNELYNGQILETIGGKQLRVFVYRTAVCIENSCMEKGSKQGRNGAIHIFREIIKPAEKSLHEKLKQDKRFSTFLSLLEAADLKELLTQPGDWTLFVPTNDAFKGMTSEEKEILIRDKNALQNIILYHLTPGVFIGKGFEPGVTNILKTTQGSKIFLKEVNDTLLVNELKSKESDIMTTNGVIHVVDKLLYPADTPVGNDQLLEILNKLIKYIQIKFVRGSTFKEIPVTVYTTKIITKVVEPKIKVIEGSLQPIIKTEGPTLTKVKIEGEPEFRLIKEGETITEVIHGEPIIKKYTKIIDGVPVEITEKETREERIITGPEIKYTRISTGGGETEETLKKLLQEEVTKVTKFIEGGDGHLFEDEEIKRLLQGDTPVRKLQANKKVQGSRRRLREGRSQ
UniProt Q9Y6A1: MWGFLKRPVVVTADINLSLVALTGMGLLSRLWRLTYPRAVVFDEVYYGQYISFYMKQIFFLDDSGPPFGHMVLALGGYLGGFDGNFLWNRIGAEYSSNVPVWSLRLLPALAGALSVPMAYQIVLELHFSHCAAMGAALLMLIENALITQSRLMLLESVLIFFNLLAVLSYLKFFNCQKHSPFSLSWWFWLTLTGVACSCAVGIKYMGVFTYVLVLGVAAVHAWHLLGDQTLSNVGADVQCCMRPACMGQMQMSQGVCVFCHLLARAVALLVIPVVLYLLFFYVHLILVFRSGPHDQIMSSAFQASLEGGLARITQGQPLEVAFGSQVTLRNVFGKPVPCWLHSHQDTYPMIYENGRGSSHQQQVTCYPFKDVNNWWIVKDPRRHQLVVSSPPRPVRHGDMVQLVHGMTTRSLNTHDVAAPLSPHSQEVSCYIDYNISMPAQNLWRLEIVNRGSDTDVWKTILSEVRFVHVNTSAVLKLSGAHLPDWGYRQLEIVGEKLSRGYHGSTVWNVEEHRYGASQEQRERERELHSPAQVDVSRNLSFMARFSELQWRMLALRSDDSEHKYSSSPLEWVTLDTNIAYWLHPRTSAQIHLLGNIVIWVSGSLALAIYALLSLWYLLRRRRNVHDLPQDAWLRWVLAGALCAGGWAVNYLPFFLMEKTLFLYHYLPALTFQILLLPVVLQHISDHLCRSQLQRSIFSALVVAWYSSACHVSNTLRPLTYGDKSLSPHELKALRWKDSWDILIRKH
UniProt P54277: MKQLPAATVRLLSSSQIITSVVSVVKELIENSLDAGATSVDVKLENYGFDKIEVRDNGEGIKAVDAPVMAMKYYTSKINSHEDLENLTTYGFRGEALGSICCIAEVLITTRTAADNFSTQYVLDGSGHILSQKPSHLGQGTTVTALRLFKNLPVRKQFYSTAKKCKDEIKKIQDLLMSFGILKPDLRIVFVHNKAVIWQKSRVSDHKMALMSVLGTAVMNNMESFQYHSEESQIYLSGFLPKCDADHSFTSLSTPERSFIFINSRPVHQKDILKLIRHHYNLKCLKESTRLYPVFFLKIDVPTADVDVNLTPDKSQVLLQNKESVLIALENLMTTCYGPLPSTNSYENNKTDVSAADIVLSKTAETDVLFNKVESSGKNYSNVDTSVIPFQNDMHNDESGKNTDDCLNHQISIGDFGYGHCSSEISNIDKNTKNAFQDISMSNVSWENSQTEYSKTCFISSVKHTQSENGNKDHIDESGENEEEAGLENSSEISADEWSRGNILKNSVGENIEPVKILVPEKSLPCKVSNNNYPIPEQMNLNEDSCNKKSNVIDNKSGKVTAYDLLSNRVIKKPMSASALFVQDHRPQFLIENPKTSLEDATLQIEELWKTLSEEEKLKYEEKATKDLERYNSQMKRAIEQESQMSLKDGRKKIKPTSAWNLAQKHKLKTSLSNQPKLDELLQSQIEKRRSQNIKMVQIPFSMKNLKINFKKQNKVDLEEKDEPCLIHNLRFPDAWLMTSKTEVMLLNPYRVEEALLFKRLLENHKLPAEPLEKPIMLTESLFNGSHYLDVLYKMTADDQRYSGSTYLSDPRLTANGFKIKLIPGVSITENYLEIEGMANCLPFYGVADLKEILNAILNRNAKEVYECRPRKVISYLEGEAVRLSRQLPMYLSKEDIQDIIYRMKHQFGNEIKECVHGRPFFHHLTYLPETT
UniProt Q9UNA4: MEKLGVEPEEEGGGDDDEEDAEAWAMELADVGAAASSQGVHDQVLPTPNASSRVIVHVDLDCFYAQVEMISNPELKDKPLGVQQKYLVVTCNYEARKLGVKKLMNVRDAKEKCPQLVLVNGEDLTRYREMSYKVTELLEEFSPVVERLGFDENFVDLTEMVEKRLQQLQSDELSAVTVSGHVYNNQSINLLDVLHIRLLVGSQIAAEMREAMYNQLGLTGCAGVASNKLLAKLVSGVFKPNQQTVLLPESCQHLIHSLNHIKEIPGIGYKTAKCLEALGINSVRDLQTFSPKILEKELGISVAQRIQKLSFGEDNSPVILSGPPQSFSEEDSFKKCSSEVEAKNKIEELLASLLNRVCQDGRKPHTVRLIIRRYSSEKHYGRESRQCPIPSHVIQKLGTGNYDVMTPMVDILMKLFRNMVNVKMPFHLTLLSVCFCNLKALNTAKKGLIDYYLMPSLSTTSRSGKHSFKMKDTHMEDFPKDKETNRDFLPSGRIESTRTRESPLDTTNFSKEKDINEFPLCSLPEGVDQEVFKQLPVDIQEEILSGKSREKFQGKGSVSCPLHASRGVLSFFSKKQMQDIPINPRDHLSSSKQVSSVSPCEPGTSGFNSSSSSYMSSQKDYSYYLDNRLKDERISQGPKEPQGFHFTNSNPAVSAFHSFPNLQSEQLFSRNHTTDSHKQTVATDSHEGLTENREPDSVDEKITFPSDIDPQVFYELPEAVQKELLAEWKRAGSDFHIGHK
UniProt Q7Z3K3: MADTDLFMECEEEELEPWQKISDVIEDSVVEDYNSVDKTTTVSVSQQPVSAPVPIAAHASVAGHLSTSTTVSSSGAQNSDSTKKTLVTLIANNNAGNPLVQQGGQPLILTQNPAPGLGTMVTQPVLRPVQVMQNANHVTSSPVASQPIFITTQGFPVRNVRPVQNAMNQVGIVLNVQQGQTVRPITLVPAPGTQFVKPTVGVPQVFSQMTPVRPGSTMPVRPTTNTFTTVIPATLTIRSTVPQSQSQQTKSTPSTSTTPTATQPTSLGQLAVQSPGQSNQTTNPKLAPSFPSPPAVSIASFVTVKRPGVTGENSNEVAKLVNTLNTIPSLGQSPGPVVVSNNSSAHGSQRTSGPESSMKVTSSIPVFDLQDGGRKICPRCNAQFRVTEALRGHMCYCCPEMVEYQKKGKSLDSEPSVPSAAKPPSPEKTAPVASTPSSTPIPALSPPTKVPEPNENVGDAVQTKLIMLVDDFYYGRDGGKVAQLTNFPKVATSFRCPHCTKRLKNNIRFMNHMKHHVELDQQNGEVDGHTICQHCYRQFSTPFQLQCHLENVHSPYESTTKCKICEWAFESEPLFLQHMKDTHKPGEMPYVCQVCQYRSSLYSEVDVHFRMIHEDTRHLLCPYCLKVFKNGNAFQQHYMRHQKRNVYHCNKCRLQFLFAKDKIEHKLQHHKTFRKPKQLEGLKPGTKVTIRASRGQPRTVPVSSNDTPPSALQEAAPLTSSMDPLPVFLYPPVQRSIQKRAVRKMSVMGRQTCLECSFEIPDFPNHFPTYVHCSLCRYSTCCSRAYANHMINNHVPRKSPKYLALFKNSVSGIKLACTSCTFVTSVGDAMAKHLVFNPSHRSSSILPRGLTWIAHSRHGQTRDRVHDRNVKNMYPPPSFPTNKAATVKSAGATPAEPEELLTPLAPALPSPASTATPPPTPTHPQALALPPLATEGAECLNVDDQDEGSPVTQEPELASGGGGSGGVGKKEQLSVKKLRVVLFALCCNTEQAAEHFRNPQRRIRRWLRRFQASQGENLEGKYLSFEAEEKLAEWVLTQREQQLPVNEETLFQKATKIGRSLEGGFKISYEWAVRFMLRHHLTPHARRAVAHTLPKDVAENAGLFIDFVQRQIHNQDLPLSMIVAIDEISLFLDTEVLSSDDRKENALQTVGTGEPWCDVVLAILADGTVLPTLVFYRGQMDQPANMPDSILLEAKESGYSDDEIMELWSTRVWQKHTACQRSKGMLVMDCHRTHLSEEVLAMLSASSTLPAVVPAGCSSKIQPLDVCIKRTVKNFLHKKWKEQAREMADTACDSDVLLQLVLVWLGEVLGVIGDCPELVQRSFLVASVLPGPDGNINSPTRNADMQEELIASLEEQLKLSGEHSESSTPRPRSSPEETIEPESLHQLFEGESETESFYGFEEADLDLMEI
UniProt Q9HBL7: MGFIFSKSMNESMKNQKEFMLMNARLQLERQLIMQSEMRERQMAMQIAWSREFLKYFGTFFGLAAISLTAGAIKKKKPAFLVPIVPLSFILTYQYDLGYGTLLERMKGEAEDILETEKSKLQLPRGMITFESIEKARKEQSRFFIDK

What was measured:
Test in all cases: log2 fold change, soluble protein after heating vs DMSO (PISA); higher = thermal stabilisation; K562 lysate, 10 uM; active = over 0.2 and 3.5 SD of the protein, either way, in both replicates (recomputed)
[1] = compound: CC1=C(C2=C(C=C1)C(=O)C3=CC=CC=C3N2CCCN)C
Summary of the method: (§1)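 A 30 min treatment with 10 μM compound was applied to crude K562 extract at 1 mg/mL protein in PBS pH 7.4 with 1 mM MgCl2. Heating for 3 min spanned 48°C-58°C, after which aliquots were pooled, adjusted to 0.5% NP-40 at 4°C and spun at 21,000xg for 90 min. TMTpro 16plex LC-MS/MS of the supernatant, with channel sums equalised, gave values recorded as log-two fold change in thermal stability against solvent controls, from duplicates.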

ibrutinib = compound: C=CC(=O)N1CCC[C@@H](n2nc(-c3ccc(Oc4ccccc4)cc3)c3c(N)ncnc32)C1 [ibrutinib]
Summary of the method: as §1

ralimetinib = compound: CC(C)(C)Cn1c(N)nc2ccc(-c3[nH]c(C(C)(C)C)nc3-c3ccc(F)cc3)nc21 [ralimetinib]
Summary of the method: as §1

[2] = compound: CC(C)(O)CC(=O)NCCn1ccc2ncnc(Nc3ccc(Oc4cccc(C(F)(F)F)c4)c(Cl)c3)c21
Summary of the method: as §1

[3] = compound: CC(C)C1=C2N=C(C=C(N2N=C1)NCC3=CC=CC=C3)NCCCCCCN
Summary of the method: as §1

[4] = compound: CC1=C(C(CC(=O)N1)C2=CC=C(C=C2)C(F)(F)F)C(=O)NC3=C(C=C4C(=C3)C=NN4)F
Summary of the method: as §1

[5] = compound: CC1=C(C=C(C=C1)NC(=O)C2=CC(=CC=C2)C(C)(C)C#N)NC3=CC4=C(C=C3)N=CN(C4=O)C
Summary of the method: as §1

[6] = compound: CC1=C(C=C(C=C1)NC(=O)C2=CC(=CC=C2)N(C)C)NC(=O)C3=CC=C(C=C3)O
Summary of the method: as §1

[7] = compound: CC(=O)c1cnc2ccc(-c3cc(Cl)c(O)c(Cl)c3)nc2c1N[C@H]1CC[C@H](CN(C)C)CC1
Summary of the method: as §1

[8] = compound: CC1=CC=C(C=C1)SC2=C3C=C(SC3=CN=C2)C(=O)N
Summary of the method: as §1

Measured: log2 fold change

POLR2F (UniProt U3KPV3)
inactive: [1] 0.223

PPIC (UniProt P45877)
inactive: ibrutinib 0.278 | ralimetinib -0.17 | [2] 0.057 | [3] -0.021 | [4] -0.139 | [1] 0.138 | [5] 0.102 | [6] 0.05

PLPP6 (UniProt Q8IY26)
inactive: ralimetinib 0.026 | [2] 0.006 | [3] 0.021 | [4] 0.041 | [1] -0.062 | [5] 0.149 | [6] 0.027

PLOD2 isoform 2 (UniProt O00469)
inactive: ibrutinib -0.07 | [1] -0.005

POLG2 (UniProt J3KRM2)
inactive: ibrutinib 0.024 | [7] -0.052 | [3] -0.061 | [4] -0.197 | [8] -0.21

PLXND1 (UniProt Q9Y4D7)
inactive: ibrutinib 0.138 | ralimetinib -0.081 | [2] -0.07 | [3] 0.046 | [4] -0.023 | [1] 0.112 | [5] -0.033 | [6] 0.218

PLEKHH2 (UniProt E5RGK1)
inactive: [7] -0.025 | [1] -0.086 | [5] 0.014 | [8] 0.036

POLR2K (UniProt P53803)
inactive: ibrutinib -0.044 | ralimetinib 0.026 | [2] -0.114 | [1] 0.044 | [5] -0.122 | [6] 0.018

PLXNB1 (UniProt O43157)
inactive: ralimetinib -0.01 | [2] -0.16 | [3] -0.241 | [4] -0.048 | [1] -0.104 | [5] 0.011 | [6] -0.002

POC1B (UniProt Q8TC44)
inactive: ralimetinib 0.064 | [2] 0.073 | [3] 0.017 | [1] -0.054 | [6] -0.036

PPHLN1 (UniProt Q8NEY8)
inactive: [7] -0.046 | [3] 0.092 | [4] -0.034 | [5] 0.009 | [8] -0.017

POLR2M (UniProt Q6EEV4)
inactive: ibrutinib 0.005 | [7] -0.07 | [3] -0.109 | [1] 0.007 | [5] 0.157 | [8] 0.078

POMGNT2 (UniProt Q8NAT1)
inactive: [7] 0.059 | ralimetinib 0.025 | [2] -0.04 | [3] -0.047 | [4] 0.083 | [1] -0.004 | [5] 0.1 | [6] 0.007 | [8] -0.017

PPIA isoform 2 (UniProt P62937)
inactive: ibrutinib 0.015 | [4] -0.068

PPFIBP1 (UniProt Q86W92)
inactive: [5] -0.123

POMK (UniProt Q9H5K3)
inactive: ibrutinib 0.021 | ralimetinib 0.074 | [2] -0.079 | [3] 0.061 | [1] -0.012 | [5] -0.013 | [6] 0.047

POC1A (UniProt Q8NBT0)
inactive: [7] 0.146 | [4] -0.039 | [5] -0.111 | [8] -0.051

POSTN (UniProt Q15063)
inactive: ibrutinib -0.001 | ralimetinib -0.089 | [2] -0.129 | [3] -0.094 | [5] 0.088 | [6] 0.073

PML isoform 11 (UniProt P29590)
inactive: [1] 0.03

PNMT (UniProt P11086)
inactive: [7] 0.076 | ralimetinib -0.143 | [2] -0.243 | [3] 0.007 | [5] 0.079 | [6] 0.357 | [8] 0.021

PLEKHM1 (UniProt Q9Y4G2)
inactive: ralimetinib -0.003 | [2] -0.011 | [3] 0.053 | [5] 0.046 | [6] -0.088

Two entries drawn at random from the list so far, as already listed:
POMK (UniProt Q9H5K3)
inactive: ibrutinib 0.021 | ralimetinib 0.074 | [2] -0.079 | [3] 0.061 | [1] -0.012 | [5] -0.013 | [6] 0.047

POMGNT2 (UniProt Q8NAT1)
inactive: [7] 0.059 | ralimetinib 0.025 | [2] -0.04 | [3] -0.047 | [4] 0.083 | [1] -0.004 | [5] 0.1 | [6] 0.007 | [8] -0.017

Later entries.

PNPLA4 (UniProt P41247)
inactive: ralimetinib 0.14 | [2] -0.099 | [1] -0.116 | [5] -0.052 | [6] 0.046

PORCN (UniProt Q9H237)
inactive: [4] -0.227

POLK (UniProt Q9UBT6)
inactive: ibrutinib 0.085 | [7] 0.107 | [4] -0.096 | [8] -0.15

PLTP (UniProt P55058)
inactive: ralimetinib -0.059 | [2] -0.062 | [3] 0.172 | [4] 0.688 | [1] -0.019 | [6] 0.031

POU6F1, A0A1C7CYV8
inactive: ralimetinib -0.131 | [2] 0.182 | [6] 0

POMT1 (UniProt Q9Y6A1)
inactive: [7] 0.067 | [1] -0.164 | [8] 0.191

PPARGC1B (UniProt Q86YN6)
inactive: ralimetinib 0.089 | [2] -0.016 | [3] 0.06 | [6] 0.079

PLEKHJ1 (UniProt Q9NW61)
inactive: ralimetinib -0.003 | [2] -0.001 | [3] 0.017 | [5] 0.004 | [6] -0.02

PMS1 (UniProt P54277)
inactive: ibrutinib 0 | ralimetinib -0.015 | [2] -0.021 | [3] 0.025 | [4] -0.052 | [1] 0.022 | [5] -0.02 | [6] 0.009

POLI (UniProt Q9UNA4)
inactive: [4] 0.158 | [5] 0.108

PLEKHG4 (UniProt Q58EX7)
inactive: ralimetinib -0.009 | [2] -0.018 | [4] -0.105 | [1] -0.012 | [5] -0.027 | [6] 0.016

PLPPR3 isoform 3 (UniProt Q6T4P5)
inactive: ralimetinib 0.232 | [2] -0.171 | [1] 0.068 | [6] -0.101

POGZ (UniProt Q7Z3K3)
inactive: [7] -0.165 | ralimetinib -0.013 | [2] -0.039 | [4] -0.071 | [1] -0.096 | [5] -0.051 | [6] -0.109 | [8] -0.022

POF1B isoform 1 (UniProt Q8WVV4)
inactive: [1] 0.225

PLGRKT (UniProt Q9HBL7)
inactive: ibrutinib 0.11 | ralimetinib 0.034 | [2] -0.092 | [3] 0.004 | [4] -0.005 | [1] -0.042 | [5] 0.057 | [6] 0.05

POLD4 (UniProt Q9HCU8)
inactive: [7] -0.096 | ralimetinib 0.022 | [2] -0.148 | [3] 0.059 | [4] -0.114 | [1] 0.012 | [5] 0.091 | [6] -0.01 | [8] 0.01
